Assay results: publication doi:10.1101/2021.10.07.463531
These are yes or no findings as the source states them, for the method shown. In cells and extracts the contact can be indirect. For some assays here: Binding calls can cover weak binding; strength is not graded here. Where a sequence is shown, tags or fusion partners need not be part of it.

Experiments:
[1] = molecular target: GST-Bicc1-KH (GST fusion of the entire KH tandem repeat of Bicc1) (UniProt Q99MQ1); experiment: pull-down
HA-Bicc1 ΔKH = HA-Bicc1 ΔKH (UniProt Q99MQ1); experiment: co-IP
HA-Bicc1 ΔKH-mutD = HA-Bicc1 ΔKH-mutD (UniProt Q99MQ1); experiment: co-IP

Q: How did the binding [1] turn out when HA-Bicc1 ΔKH (from UniProt Q99MQ1) was run?
A: The binding was “binds weakly”.

Q: With HA-Bicc1 ΔSAM (from UniProt Q99MQ1) as the molecule, how does the binding [1] read?
A: The binding was “binds”.

B1: HA-Bicc1 (full-length, wild type) (protein, UniProt Q99MQ1 1-977)
chain: MASQSEPGYLAAAQSDPGSNSERSTDSPVAGSEDDLVAAAPLLHSPEWSEERFRVDRKKLEAMLQAAAEGKGRSGEDFFQKIMEETNTQIAWPSKLKIGAKSKKDPHIKVSGKKEDVKEAKEMIMSVLDTKSNRVTLKMDVSHTEHSHVIGKGGNNIKKVMEDTGCHIHFPDSNRNNQAEKSNQVSIAGQPAGVESARARIRELLPLVLMFELPIAGILQPVPDPNTPSIQHISQTYSVSVSFKQRSRMYGATVTVRGSQNNTNAVKEGTAMLLEHLAGSLASAIPVSTQLDIAAQHHLFMMGRNGSNVKHIMQRTGAQIHFPDPSNPQKKSTVYLQGTIESVCLARQYLMGCLPLVLMFDMKEDIEVDPQVIAQLMEQLDVFISIKPKPKQPSKSVIVKSVERNALNMYEARKCLLGLESSGVSIATSLSPASCPAGLACPSLDILASAGLGLTGLGLLGPTTLSLNTSATPNSLLNALNTSVSPLQSSSSGTPSPTLWAPPIANTASATGFSTIPHLMLPSTAQATLTNILLSGVPTYGHTAPSPPPGLTPVDVHINSMQTEGKNISASINGHVQPANMKYGPLSTSSLGEKVLSSNHGDPSMQTAGPEQASPKSNSVEGCNDAFVEVGMPRSPSHSGNAGDLKQMLGASKVSCAKRQTVELLQGTKNSHLHGTDRLLSDPELSATESPLADKKAPGSERAAERAAAAQQKSERARLASQPTYVHMQAFDYEQKKLLATKAMLKKPVVTEVRTPTNTWSGLGFSKSMPAETIKELRRANHVSYKPTMTTAYEGSSLSLSRSSSREHLASGSESDNWRDRNGIGPMGHSEFSAPIGSPKRKQNKSREHYLSSSNYMDCISSLTGSNGCNLNSCFKGSDLPELFSKLGLGKYTDVFQQQEIDLQTFLTLTDQDLKELGITTFGARRKMLLAISELSKNRRKLFEPPNASCTSFLEGGASGRLPRQYHSDIASVSGRW
Q: For B1, which binding [1] is on record?
A: The binding was “binds”.

B2: GFP-Bicc1 (protein, UniProt Q99MQ1 1-977)
chain: B1 chain
Q: Which results are given for B2?
A: binding (HA-Bicc1 ΔKH): binds; binding (HA-Bicc1 ΔKH-mutD): no binding
